Laboratory results: PubChem BioAssay AID1508597 (Cure First, 2020)

Assay: 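Genes whose silencing sensitises or protects ovarian cancer cells against rucaparib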 (primary screen)
System: human ovarian carcinoma lines grown from tumours: OCI-P5x (papillary serous) and OCI-C5x (clear cell)
Knock-down reagent: siRNA pool against human genes, 1.25 pmol siRNA per well
Timing: 72 h or 96 h, depending on the cell culture
Challenge: rucaparib 20 µM (about IC30) or vehicle, present until read-out
Measurement: 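Luminescent ATP-based viability assay read 72 or 96 h after transfection, depending on culture, given as normalised percent viability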
Direction: viability, normalised: higher = more viable cells remaining
Rule for the call: 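Active when normalised viability falls below 80 percent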
Meaning of the calls: active = viability under 80%; inactive = viability 80% or more
Here is an unselected part of about 2,100 reagents. 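Calls flag viability under 80% in either arm, not effects specific to rucaparib; the reference for percent is not stated.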 Reagent sequences are not shown. The record does not give: the 100% reference.

Gene | rucaparib or vehicle | cell line | technical replicate | viability, normalised (%) | outcome
SFN (GeneID 2810) | Rucaparib | OCI-C5x (clear cell) | 1 | 52.2 | active
SFN (GeneID 2810) | Rucaparib | OCI-C5x (clear cell) | 2 | 38.8 | active
SFN (GeneID 2810) | Rucaparib | OCI-C5x (clear cell) | 3 | 42.2 | active
SFN (GeneID 2810) | Rucaparib | OCI-P5x (serous) | 1 | 62.5 | active
SFN (GeneID 2810) | Rucaparib | OCI-P5x (serous) | 2 | 60.5 | active
SFN (GeneID 2810) | Rucaparib | OCI-P5x (serous) | 3 | 59.7 | active
SFN (GeneID 2810) | Vehicle | OCI-C5x (clear cell) | 1 | 36.2 | active
SFN (GeneID 2810) | Vehicle | OCI-C5x (clear cell) | 2 | 51.8 | active
SFN (GeneID 2810) | Vehicle | OCI-C5x (clear cell) | 3 | 56.2 | active
SFN (GeneID 2810) | Vehicle | OCI-P5x (serous) | 1 | 71.8 | active
SFN (GeneID 2810) | Vehicle | OCI-P5x (serous) | 2 | 79.6 | active
SFN (GeneID 2810) | Vehicle | OCI-P5x (serous) | 3 | 102 | inactive
AANAT (GeneID 15) | Rucaparib | OCI-C5x (clear cell) | 1 | 47.9 | active
AANAT (GeneID 15) | Rucaparib | OCI-C5x (clear cell) | 2 | 40.4 | active
AANAT (GeneID 15) | Rucaparib | OCI-C5x (clear cell) | 3 | 40.3 | active
AANAT (GeneID 15) | Rucaparib | OCI-P5x (serous) | 1 | 58.9 | active
AANAT (GeneID 15) | Rucaparib | OCI-P5x (serous) | 2 | 56.9 | active
AANAT (GeneID 15) | Rucaparib | OCI-P5x (serous) | 3 | 56.1 | active
AANAT (GeneID 15) | Vehicle | OCI-C5x (clear cell) | 1 | 57.5 | active
AANAT (GeneID 15) | Vehicle | OCI-C5x (clear cell) | 2 | 41.5 | active
AANAT (GeneID 15) | Vehicle | OCI-C5x (clear cell) | 3 | 38.3 | active
AANAT (GeneID 15) | Vehicle | OCI-P5x (serous) | 1 | 49.3 | active
AANAT (GeneID 15) | Vehicle | OCI-P5x (serous) | 2 | 74.9 | active
AANAT (GeneID 15) | Vehicle | OCI-P5x (serous) | 3 | 52.2 | active

Entries above whose gene name starts with A or a:
Gene | rucaparib or vehicle | cell line | technical replicate | viability, normalised (%) | outcome
AANAT (GeneID 15) | Rucaparib | OCI-C5x (clear cell) | 1 | 47.9 | active
AANAT (GeneID 15) | Rucaparib | OCI-C5x (clear cell) | 2 | 40.4 | active
AANAT (GeneID 15) | Rucaparib | OCI-C5x (clear cell) | 3 | 40.3 | active
AANAT (GeneID 15) | Rucaparib | OCI-P5x (serous) | 1 | 58.9 | active
AANAT (GeneID 15) | Rucaparib | OCI-P5x (serous) | 2 | 56.9 | active
AANAT (GeneID 15) | Rucaparib | OCI-P5x (serous) | 3 | 56.1 | active
AANAT (GeneID 15) | Vehicle | OCI-C5x (clear cell) | 1 | 57.5 | active
AANAT (GeneID 15) | Vehicle | OCI-C5x (clear cell) | 2 | 41.5 | active
AANAT (GeneID 15) | Vehicle | OCI-C5x (clear cell) | 3 | 38.3 | active
AANAT (GeneID 15) | Vehicle | OCI-P5x (serous) | 1 | 49.3 | active
AANAT (GeneID 15) | Vehicle | OCI-P5x (serous) | 2 | 74.9 | active
AANAT (GeneID 15) | Vehicle | OCI-P5x (serous) | 3 | 52.2 | active

The listing continues:
Gene | rucaparib or vehicle | cell line | technical replicate | viability, normalised (%) | outcome
CLDN19 (GeneID 149461) | Rucaparib | OCI-C5x (clear cell) | 1 | 30.9 | active
CLDN19 (GeneID 149461) | Rucaparib | OCI-C5x (clear cell) | 2 | 26.8 | active
CLDN19 (GeneID 149461) | Rucaparib | OCI-C5x (clear cell) | 3 | 22.7 | active
CLDN19 (GeneID 149461) | Rucaparib | OCI-P5x (serous) | 1 | 49.5 | active
CLDN19 (GeneID 149461) | Rucaparib | OCI-P5x (serous) | 2 | 71 | active
CLDN19 (GeneID 149461) | Rucaparib | OCI-P5x (serous) | 3 | 56.7 | active
CLDN19 (GeneID 149461) | Vehicle | OCI-C5x (clear cell) | 1 | 26.3 | active
CLDN19 (GeneID 149461) | Vehicle | OCI-C5x (clear cell) | 2 | 21.4 | active
CLDN19 (GeneID 149461) | Vehicle | OCI-C5x (clear cell) | 3 | 28 | active
CLDN19 (GeneID 149461) | Vehicle | OCI-P5x (serous) | 1 | 38.3 | active
CLDN19 (GeneID 149461) | Vehicle | OCI-P5x (serous) | 2 | 50.2 | active
CLDN19 (GeneID 149461) | Vehicle | OCI-P5x (serous) | 3 | 49.8 | active
NRXN2 (GeneID 9379) | Rucaparib | OCI-C5x (clear cell) | 1 | 61.8 | active
NRXN2 (GeneID 9379) | Rucaparib | OCI-C5x (clear cell) | 2 | 36.5 | active
NRXN2 (GeneID 9379) | Rucaparib | OCI-C5x (clear cell) | 3 | 50.2 | active
NRXN2 (GeneID 9379) | Rucaparib | OCI-P5x (serous) | 1 | 45.8 | active
NRXN2 (GeneID 9379) | Rucaparib | OCI-P5x (serous) | 2 | 50.2 | active
NRXN2 (GeneID 9379) | Rucaparib | OCI-P5x (serous) | 3 | 39 | active
NRXN2 (GeneID 9379) | Vehicle | OCI-C5x (clear cell) | 1 | 53.8 | active
NRXN2 (GeneID 9379) | Vehicle | OCI-C5x (clear cell) | 2 | 34.4 | active
NRXN2 (GeneID 9379) | Vehicle | OCI-C5x (clear cell) | 3 | 40.7 | active
NRXN2 (GeneID 9379) | Vehicle | OCI-P5x (serous) | 1 | 58.5 | active
NRXN2 (GeneID 9379) | Vehicle | OCI-P5x (serous) | 2 | 53.2 | active
NRXN2 (GeneID 9379) | Vehicle | OCI-P5x (serous) | 3 | 124 | inactive
IKBKE (GeneID 9641) | Rucaparib | OCI-C5x (clear cell) | 1 | 57 | active
IKBKE (GeneID 9641) | Rucaparib | OCI-C5x (clear cell) | 2 | 60 | active
IKBKE (GeneID 9641) | Rucaparib | OCI-C5x (clear cell) | 3 | 48.1 | active
IKBKE (GeneID 9641) | Rucaparib | OCI-P5x (serous) | 1 | 64 | active
IKBKE (GeneID 9641) | Rucaparib | OCI-P5x (serous) | 2 | 74.6 | active
IKBKE (GeneID 9641) | Rucaparib | OCI-P5x (serous) | 3 | 49.8 | active
IKBKE (GeneID 9641) | Vehicle | OCI-C5x (clear cell) | 1 | 117 | inactive
IKBKE (GeneID 9641) | Vehicle | OCI-C5x (clear cell) | 2 | 40.6 | active
IKBKE (GeneID 9641) | Vehicle | OCI-C5x (clear cell) | 3 | 46.7 | active
IKBKE (GeneID 9641) | Vehicle | OCI-P5x (serous) | 1 | 54 | active
IKBKE (GeneID 9641) | Vehicle | OCI-P5x (serous) | 2 | 59.4 | active
IKBKE (GeneID 9641) | Vehicle | OCI-P5x (serous) | 3 | 63.9 | active
